# In publication PMC9174988:
# Results are given in words; binding and its absence hold for the method and conditions named. Binding seen in cells or lysates may run through a third protein. Some entries that bind do so weakly or less than the wild type. For part of these data: Sequences can lack the tags named with a protein.
# T1: hCLN6 (AAV9-hCLN6 transgene) (human) (UniProt Q9NWW5)
# T1 sequence: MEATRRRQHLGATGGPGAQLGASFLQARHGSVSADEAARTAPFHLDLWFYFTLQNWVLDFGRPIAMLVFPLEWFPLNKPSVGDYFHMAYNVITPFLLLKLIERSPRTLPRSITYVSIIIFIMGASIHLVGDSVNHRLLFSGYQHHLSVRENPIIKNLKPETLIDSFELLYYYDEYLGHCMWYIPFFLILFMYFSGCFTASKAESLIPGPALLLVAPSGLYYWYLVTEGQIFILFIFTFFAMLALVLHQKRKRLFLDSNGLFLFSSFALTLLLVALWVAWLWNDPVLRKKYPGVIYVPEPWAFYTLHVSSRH
# T2: CLN3 (tagged CLN3 expression plasmid) (UniProt Q13286)
# T2 sequence: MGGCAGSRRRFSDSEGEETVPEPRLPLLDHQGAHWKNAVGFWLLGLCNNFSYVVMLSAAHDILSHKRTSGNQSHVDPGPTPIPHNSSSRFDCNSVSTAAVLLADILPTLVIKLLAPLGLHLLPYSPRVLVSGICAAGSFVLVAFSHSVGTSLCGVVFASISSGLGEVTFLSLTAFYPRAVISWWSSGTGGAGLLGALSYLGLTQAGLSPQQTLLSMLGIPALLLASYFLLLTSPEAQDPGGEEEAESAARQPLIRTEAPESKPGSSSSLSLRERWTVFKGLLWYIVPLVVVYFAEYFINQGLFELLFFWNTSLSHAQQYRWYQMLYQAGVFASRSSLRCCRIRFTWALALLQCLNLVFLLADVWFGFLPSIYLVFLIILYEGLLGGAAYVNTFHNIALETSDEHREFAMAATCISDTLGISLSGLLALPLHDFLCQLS
# B1: Synaptobrevin homolog YKT6 (mouse cortex) (protein, UniProt Q9CQW1 1-198)
# chain: MKLYSLSVLYKGDPKAVLLKAAYDVSSFSFFQRSSVQEFMTFTSQLIVERSGKGSRASVKEQEYLCHVYVRSDSLAGVVIADSEYPSRVAFTLLEKVLDEFSKQVDRIDWPVGSPATIQYTGLDDHLSKYQNPREADPMSKVQAELDETKIILHNTMESLLERGEKLDDLVSKSEVLGTQSKAFYKTARKQNSCCAIM
# B2: VTI1B (mouse cortex) (protein, UniProt O88384 1-232)
# chain: MAASAASSEHFEKLHEIFRGLLEDLQGVPERLLGTAGTEEKKKLVRDFDENQQEANETLAEMEEELRYAPLTFRNPMMSKLRNYRKDLAKLHREVRSTPLTAAPGGRGDLKYGTYTLENEHLNRLQSQRALLLQGTESLNRATQSIERSHRIATETDQIGTEIIEELGEQRDQLERTKSRLVNTNENLSKSRKILRSMSRKVITNKLLLSVIILLELAILVGLVYYKFFRHH
# B3: TBC1D5 (protein, UniProt Q80XQ2 1-815)
# chain: MYKSVSETRHPLQSEEQEVGIDPLFSYSNKTRGDLSQNGRGSNSTLDTEGTFNSYMKEWEELFVNNNYLATVRQKGINGQLRSSRFRSICWKLFLCVLPQDKSQWISKIKELRAWYSSIKEIHITNPRKAAGQQDLMINNPLSQDEGSLWNKFFQDKELRSMIEQDVKRTFPEMQFFQQENVRKILTDVLFCYARENEQLLYKQGMHELLAPIIFTLHCDHQAFLHASESAQPSEEMKTLLNPEYLEHDAYAMFSQLMETAEPWFSTFEHDGQKGKETLMAPIPFARPQDLGPTVAIVTKVNQIQDHLLKKHDIELYMHLNRLEIAPQIYGLRWVRLLFGREFPLQDLLVVWDALFADSLNLSLVDYVFTAMLLYIRDALISSNYQTCLGLLMHYPIIGDIHSLILKALFLRDPKRNPRPATYQFHPNLDYYKARGADLMNKSRTNARGAPLNIHKVSNSLINFGRKLISPASAPGSMGGPVPGNNSSSSFSAAIPTRTSTEAPRHHLLQQQQQQQHQQQQQQQPQQQQQQHQQQQQQQRLMKSESMPVQLNKGQSSKTISSSPSIESLPGGREFTGSPPPSATKKDSFFSNIARSRSHSKTMGRKESEEELEAQISFLQGQLNDLDAMCKYCAKVMDMHLVNIQDVVLQENLEKEDQILVSLAGLKQIKDILKGSLRFNQSQLEAGENEQITIADDHYCSSGQDQGSQVPRAAKQASSEMPGCTGGTTPDDFILVSKEDEGHRARGAFSGQAQPLLTLRSTSGKSRAPACSPLLFSDPLMGPASASASSSNPSSSPDDDSSKESGFTIVSPLDI
# B4: Synaptobrevin homolog YKT6 (in neuroblastoma cells) (protein, UniProt Q9CQW1 1-198)
# chain: B1 chain
# B5: TBC1D15 (protein, UniProt Q9CXF4 1-671)
# chain: MAAAGVVSGKIIYEQEGVYIHSSCGKANDQDSLISGILRVLEKDAEVIVDWRPLDDALDSSSILCAGKDSSSVVEWTQAPKERAHRGSDQQSSYEAEWDMVTTVSFKKKPHTNGDAPGHRNGKSKWSFLFSLADLKSVKQSKEGMGWSYLVFCLKDDVMLPALHFHQGDSKLLIESLEKYVVLCESPQDSRTLLVNCQNKSLSQSFENLLDEPAYGLIQKIKKDPYTATMVGFSKVTNYIFDSLRGSDPSTHQRPPSEMADFLSDAIPGLKINQQEEPGFEVITRIDLGERPVVQRREPVSLEEWNKSLDPEGRLVAVESMKQKIFRGGLSHSLRKQAWKFLLGYFPWDSTKEERTQLQKQKTDEYFRMKLQWKSVSEAQEKRNSRLRDYRSLIEKDVNRTDRTNKFYEGQDNPGLILLHDILMTYCMYDFDLGYVQGMSDLLSPLLYVMENEVDAFWCFASYMDQMHQNFEEQMQGMKTQLIQLSTLLRLLDSGFCSYLESQDSGYLYFCFRWLLIRFKREFSFLDILRLWEVMWTELPCKNFHLLLCCAILESEKQQIMAKHYGFNEILKHINELSMKIDVEDILCKAEAISLQMAQCKELPQAVCEILGLQDSEITTPDSDTDENVGSPCPVSAFPSSTLPILAASEAKDDSPTQTLASPNACRLTPA
# B6: VTI1B (in neuroblastoma cells) (protein, UniProt O88384 1-232)
# chain: B2 chain
# Biological target: T1, hCLN6 (AAV9-hCLN6 transgene) (human)
# Assay: co-IP; hCLN6 (AAV9-hCLN6 representatives) immunoprecipitation; Western blot of partners; input ~3% of total protein loaded on IPs
row,binding,Binder
1,binds,B1
2,binds,B2

# Biological target: T2, CLN3 (tagged CLN3 expression plasmid)
# Assay: co-IP; tagged CLN3 or CLN8 expression plasmids used for immunoprecipitation; Western blot of partners; input ~3% of total protein loaded on IPs
row,Binder,binding
1,B3,binds
2,B4,binds
3,B5,binds
4,B6,binds
